Data from patent publication US20160090416A1 (NUMAB, published 2016).
Changes are numbered by the printed parent chain. No constants are given. Whether binding was seen depends on the method and setting. Some results given as binding are weak or reduced against the parent protein; the word gives no strength.

By UniProt entry, the sequences of proteins in these tests, tags left out. Where a name states a change or a piece, a line headed by the entry shows the natural chain unless it says otherwise.
UniProt P07766: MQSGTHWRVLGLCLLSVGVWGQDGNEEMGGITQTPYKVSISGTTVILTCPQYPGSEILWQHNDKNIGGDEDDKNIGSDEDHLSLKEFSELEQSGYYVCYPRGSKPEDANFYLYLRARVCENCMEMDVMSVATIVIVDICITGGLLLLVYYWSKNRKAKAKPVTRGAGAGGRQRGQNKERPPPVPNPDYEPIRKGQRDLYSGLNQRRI
UniProt P09693: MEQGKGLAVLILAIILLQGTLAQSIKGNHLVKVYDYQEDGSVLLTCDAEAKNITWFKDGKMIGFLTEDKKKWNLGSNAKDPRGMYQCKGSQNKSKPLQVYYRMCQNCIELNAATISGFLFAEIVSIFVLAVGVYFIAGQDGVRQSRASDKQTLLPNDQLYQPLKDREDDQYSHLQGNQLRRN

B1: clone-02 (antibody, V domains shown)
VH: QSLEESGGRLVTPGTPLTLTCTVSGFPLSAYAMIWVRQAPGKGLEWIGMIIRSGTVYYANWAKGRFTISKTSTTVDLKITSPTTEDTATYFCARRHYNADGYPIGIGDLWGPGTLVTVSS
VL: AQVLTQTPSSVSAVVGGTVTISCQSSESVYSNNRLSWFQQKPGQPPKLLIYSASTLASGVPSRFKGSGSGTQFTLTITDLECDDAATYFCQGEFSCSSVDCFSFGGGTEVVVKG
B2: clone-03 (antibody, V domains shown)
VH: QSLEESGGRLVTPGTPLTLTCTVSGFPLNRYAMLWVRQAPGKGLEWIGLITRADKKYYASWAKGRFTISKTSTTVDLEITGPTTEDTATYFCARRHYNTDGYPIAIGDLWGPGTLVTVSS
VL: AQVLTQTPSSVSAAVGGTVTISCQSNENIYSNNRLSWFQQKPGQPPNQLIYSASSLASGVPSRFKGSGSGTQFTLTISDLECDDAATYYCQGEFNCNSADCFTFGGGTEVVVKG
B3: clone-04 (antibody, V domains shown)
VH: QSLEESGGRLVKPDETLTLTCTVSGFPLSSYAMGWFRQAPGKGLEWIGMILRSDNTYYASWAKGRFTISKTSTTVDLKITSPTTEDTATYFCARRHYNASGNPIAIGDLWGPGTLVTVSS
VL: AQVLTQTPSSVSAAVGGTVTINCQSSQSVYNNNRLSWFQQKPGQPPKLLIYTTSSLASGVPSRFKGSGSGTEFTLTISDLECADAATYYCQGEFSCSRADCFNFGGGTEVVVKG
B4: clone-06 (antibody, V domains shown)
VH: QSVEESGGRLVTPGTPLTLTCTVSGFPLSSYAMIWVRQAPGKGLEWIGMILRAGNIYYASWVKGRVTISKTSTTVDLKITSPTTEDTATYFCARRHYNREGYPIGIGDLWGPGTLVTVSS
VL: B3 VL with N22S, Q27E, N33K, L48Q, T53A, E72Q, A83D, S95T, R98N, N103T

These binders were tested against human heterodimeric single-chain CD3εγ extracellular domain (human) (UniProt P07766+P09693) (assay: SPR (comparison in words)).
In the case of B1, the binding is reported as “binds”. With B2 the binding was “binds”. For B3, the binding was “binds”. For B4, the binding was “binds”.
